Assay results published in PMC4860859.
These are yes or no findings as the source states them, for the method shown. In cells and extracts the contact can be indirect. Some binding calls cover weakened binding; strength is not graded here. Where a sequence is shown, tags or fusion partners need not be part of it.

The chains behind the UniProt entries cited, without tags or fusion partners.
UniProt Q08301: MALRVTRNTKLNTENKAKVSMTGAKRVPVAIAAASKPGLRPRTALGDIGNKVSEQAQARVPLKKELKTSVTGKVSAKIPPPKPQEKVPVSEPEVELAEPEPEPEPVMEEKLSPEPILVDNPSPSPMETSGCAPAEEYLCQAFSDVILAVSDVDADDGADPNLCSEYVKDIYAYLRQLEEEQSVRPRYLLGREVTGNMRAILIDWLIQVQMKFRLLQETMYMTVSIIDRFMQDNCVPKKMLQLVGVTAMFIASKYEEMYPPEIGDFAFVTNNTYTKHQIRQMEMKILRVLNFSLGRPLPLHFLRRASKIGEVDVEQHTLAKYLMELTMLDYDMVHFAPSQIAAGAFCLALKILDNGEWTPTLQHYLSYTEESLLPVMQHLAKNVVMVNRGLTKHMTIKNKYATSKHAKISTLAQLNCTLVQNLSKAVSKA
UniProt P14635: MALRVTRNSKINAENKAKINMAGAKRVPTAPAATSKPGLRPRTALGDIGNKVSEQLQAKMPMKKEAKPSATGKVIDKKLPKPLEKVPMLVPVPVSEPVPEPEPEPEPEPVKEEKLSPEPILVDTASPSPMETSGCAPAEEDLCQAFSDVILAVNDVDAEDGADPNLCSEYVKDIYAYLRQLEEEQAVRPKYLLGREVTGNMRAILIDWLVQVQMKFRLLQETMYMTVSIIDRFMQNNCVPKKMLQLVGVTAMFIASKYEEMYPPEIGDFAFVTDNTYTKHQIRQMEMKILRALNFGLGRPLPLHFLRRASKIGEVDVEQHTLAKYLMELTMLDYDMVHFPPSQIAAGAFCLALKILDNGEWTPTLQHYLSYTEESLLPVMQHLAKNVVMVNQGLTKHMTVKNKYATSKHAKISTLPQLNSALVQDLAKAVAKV

Columns and labels:
[1] = molecular target: T1, Human ERLIN2 tagged with V5, stably expressed in CHO cells (human) (UniProt O94905); assay: co-IP; ERLIN2 (V5)-expressing CHO cells synchronized at G2/M phase (nocodazole, 16 h); IP with anti-V5 or anti-HA (negative control); blots with anti-Cyclin B1, anti-Cdk1, anti-α-tubulin
T1 sequence: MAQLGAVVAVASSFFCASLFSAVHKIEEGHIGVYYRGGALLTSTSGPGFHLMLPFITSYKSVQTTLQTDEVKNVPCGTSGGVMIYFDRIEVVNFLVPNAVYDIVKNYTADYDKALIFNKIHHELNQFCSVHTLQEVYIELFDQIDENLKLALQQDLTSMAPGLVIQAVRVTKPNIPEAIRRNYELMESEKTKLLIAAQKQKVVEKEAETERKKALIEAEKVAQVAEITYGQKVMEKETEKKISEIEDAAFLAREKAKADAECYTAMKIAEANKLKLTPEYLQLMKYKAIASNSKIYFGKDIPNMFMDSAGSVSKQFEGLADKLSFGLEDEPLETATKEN

[2] = molecular target: T1, Human ERLIN2 tagged with V5, stably expressed in CHO cells (human); assay: condition: only cells synchronized in interphase (G0, G1 or S phase); co-IP; ERLIN2 (V5)-expressing CHO cells synchronized in interphase (G0, G1 or S phase, serum starvation and release); IP with anti-V5 or anti-HA (negative control); blots with anti-Cyclin B1, anti-Cdk1
[3] = molecular target: T1, Human ERLIN2 tagged with V5, stably expressed in CHO cells (human); assay: co-IP; CHO cell line stably expressing V5-tagged ERLIN2, transfected with flag-tagged Cyclin B1 or its truncated forms; IP with anti-V5 or rabbit IgG (negative control); blot with anti-flag; short and long film exposures

Substance: Cyclin B1, endogenous in CHO cells (from UniProt Q08301 1-429)
- binding [1]: binds
- binding [2]: no binding

Substance: flag-tagged full-length Cyclin B1 (from UniProt P14635 1-433)
- binding [3]: binds
